Results from patent US7223850.
Results are given in words; binding and its absence hold for the method and conditions named. Binding can be weak; no strength is given. For some of these results: In cells and extracts the contact can be indirect. For some of these results: Sequences can lack the tags named with a protein.

Key:
[1] = target: T1, TRAF2 as tested in the yeast two-hybrid system (UniProt Q12933); assay: summary: yeast two-hybrid
T1 sequence (looked up): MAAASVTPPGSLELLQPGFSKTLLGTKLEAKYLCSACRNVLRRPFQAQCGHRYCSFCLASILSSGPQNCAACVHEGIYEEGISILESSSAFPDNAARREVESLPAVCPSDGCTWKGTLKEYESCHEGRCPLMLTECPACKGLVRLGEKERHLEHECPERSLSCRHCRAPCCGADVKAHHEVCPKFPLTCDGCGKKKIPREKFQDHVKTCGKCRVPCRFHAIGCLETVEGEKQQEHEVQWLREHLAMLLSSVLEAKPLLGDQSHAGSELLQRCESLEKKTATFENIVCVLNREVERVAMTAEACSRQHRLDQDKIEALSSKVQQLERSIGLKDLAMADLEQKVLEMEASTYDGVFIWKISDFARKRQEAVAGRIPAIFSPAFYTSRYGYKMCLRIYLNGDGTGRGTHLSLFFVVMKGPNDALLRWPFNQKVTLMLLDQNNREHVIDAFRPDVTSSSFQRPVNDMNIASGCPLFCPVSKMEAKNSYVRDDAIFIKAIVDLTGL

[2] = target: T1, TRAF2 as tested in the yeast two-hybrid system; assay: yeast two-hybrid
[3] = target: T2, Flag-tagged TRAF2 (UniProt Q12933); assay: summary: co-immunoprecipitation in mammalian cells
T2 sequence (looked up): T1 sequence (looked up)

[4] = target: T2, Flag-tagged TRAF2; assay: co-immunoprecipitation from Flag-TRAF2 transfected cells, detection by anti-Apop3 Ab

Row | binding [1] | binding [2] | binding [3] | binding [4] | Substance
1 | binds | binds |  |  | Apop3 as tested in the yeast two-hybrid system (enzyme)
2 |  |  | binds | binds | endogenous Apop3 (enzyme)
